From the supplement of paper PMC6411743
± gives the standard deviation of the averaged measurements. The list shows a part of the results.

Protein sequences, listed by entry. Tags and fused reporters are not part of them. Lines headed by an entry give the natural chain unless they say otherwise; changes in a name come on top.
UniProt P52756, whole entry: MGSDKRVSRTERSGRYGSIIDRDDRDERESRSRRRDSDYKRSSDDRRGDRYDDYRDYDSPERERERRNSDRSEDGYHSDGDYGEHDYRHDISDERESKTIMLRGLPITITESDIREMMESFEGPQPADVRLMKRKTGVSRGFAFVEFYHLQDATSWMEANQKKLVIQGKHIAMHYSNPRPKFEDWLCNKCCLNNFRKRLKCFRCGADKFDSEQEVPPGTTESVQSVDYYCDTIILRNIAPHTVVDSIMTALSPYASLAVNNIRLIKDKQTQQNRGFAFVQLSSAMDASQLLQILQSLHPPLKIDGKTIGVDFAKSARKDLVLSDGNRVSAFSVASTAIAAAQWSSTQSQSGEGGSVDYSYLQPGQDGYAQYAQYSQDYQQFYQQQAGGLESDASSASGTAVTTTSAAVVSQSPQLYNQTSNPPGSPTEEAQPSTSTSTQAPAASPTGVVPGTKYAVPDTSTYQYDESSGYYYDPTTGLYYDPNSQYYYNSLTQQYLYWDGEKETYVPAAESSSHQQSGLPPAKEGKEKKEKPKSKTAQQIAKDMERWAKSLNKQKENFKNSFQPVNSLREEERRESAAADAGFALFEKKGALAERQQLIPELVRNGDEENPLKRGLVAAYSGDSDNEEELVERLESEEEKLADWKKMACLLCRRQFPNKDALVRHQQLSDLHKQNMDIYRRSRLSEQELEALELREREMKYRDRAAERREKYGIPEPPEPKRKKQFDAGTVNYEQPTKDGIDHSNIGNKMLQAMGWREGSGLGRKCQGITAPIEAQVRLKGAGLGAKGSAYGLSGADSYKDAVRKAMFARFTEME
UniProt P62942, whole entry: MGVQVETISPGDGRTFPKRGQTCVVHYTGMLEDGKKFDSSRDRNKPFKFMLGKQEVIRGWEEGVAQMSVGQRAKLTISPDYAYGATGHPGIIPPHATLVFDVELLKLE
UniProt P50552: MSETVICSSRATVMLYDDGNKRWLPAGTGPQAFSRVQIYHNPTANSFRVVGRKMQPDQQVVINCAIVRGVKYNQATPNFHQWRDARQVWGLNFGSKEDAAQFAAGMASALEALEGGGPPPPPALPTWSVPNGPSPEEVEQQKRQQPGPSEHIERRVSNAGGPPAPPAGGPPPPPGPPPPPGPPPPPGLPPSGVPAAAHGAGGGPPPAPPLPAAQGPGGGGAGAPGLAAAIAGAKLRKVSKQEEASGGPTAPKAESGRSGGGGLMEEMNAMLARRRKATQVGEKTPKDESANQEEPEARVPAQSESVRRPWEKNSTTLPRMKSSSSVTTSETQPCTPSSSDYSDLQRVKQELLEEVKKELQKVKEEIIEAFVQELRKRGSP
UniProt P78347: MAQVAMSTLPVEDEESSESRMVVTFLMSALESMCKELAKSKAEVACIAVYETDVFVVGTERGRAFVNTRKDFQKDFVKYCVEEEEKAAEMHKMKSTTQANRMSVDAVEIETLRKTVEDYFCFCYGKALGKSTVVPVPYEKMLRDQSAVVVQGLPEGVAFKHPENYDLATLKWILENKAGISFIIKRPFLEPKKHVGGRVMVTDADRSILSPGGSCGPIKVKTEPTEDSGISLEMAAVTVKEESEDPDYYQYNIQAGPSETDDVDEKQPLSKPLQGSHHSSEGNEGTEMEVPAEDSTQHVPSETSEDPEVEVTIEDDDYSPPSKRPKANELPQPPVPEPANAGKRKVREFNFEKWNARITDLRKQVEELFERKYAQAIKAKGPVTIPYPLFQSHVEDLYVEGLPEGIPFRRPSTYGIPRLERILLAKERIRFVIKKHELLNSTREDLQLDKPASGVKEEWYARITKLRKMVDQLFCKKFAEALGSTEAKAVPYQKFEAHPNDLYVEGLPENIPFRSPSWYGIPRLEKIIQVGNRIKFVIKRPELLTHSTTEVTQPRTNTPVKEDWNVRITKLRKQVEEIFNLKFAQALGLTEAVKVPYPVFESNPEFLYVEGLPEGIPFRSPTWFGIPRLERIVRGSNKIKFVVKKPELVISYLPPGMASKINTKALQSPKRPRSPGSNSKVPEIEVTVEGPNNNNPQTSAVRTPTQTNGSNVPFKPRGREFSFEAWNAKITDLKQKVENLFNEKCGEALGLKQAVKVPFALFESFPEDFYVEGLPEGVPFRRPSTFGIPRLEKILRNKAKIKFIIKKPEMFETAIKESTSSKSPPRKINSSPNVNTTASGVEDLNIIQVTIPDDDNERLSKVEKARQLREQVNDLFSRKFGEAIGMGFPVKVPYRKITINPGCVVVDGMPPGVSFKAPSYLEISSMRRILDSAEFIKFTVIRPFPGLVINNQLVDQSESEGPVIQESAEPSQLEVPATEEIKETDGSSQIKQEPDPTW
UniProt P53985: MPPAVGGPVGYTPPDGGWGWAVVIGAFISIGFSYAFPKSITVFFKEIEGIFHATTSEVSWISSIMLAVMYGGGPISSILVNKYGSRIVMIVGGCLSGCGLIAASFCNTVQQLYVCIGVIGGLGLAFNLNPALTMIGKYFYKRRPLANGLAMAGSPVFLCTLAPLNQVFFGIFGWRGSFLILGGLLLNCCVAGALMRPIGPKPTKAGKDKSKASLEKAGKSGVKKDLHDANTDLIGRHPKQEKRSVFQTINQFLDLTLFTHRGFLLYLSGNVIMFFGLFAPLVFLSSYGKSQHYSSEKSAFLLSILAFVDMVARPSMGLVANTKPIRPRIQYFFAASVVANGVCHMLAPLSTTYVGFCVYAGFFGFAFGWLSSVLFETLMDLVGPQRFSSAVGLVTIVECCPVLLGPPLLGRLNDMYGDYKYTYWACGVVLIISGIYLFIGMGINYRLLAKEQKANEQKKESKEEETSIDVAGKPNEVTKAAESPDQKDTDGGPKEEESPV
UniProt P56559: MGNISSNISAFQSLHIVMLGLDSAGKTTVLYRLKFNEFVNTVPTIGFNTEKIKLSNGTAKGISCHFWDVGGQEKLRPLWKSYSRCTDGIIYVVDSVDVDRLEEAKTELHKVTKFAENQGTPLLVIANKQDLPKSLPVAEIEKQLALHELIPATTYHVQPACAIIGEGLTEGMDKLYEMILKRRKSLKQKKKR
UniProt P52788: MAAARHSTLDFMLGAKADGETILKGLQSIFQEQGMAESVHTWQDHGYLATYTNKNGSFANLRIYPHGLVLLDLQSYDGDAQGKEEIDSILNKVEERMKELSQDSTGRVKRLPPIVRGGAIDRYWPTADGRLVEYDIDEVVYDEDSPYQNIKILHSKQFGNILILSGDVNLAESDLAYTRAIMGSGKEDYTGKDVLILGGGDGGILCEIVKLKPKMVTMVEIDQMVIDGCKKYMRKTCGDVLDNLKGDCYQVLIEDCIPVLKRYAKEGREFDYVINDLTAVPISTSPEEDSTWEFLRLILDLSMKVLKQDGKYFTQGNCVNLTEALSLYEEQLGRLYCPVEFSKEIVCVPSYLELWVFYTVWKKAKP
UniProt P98095: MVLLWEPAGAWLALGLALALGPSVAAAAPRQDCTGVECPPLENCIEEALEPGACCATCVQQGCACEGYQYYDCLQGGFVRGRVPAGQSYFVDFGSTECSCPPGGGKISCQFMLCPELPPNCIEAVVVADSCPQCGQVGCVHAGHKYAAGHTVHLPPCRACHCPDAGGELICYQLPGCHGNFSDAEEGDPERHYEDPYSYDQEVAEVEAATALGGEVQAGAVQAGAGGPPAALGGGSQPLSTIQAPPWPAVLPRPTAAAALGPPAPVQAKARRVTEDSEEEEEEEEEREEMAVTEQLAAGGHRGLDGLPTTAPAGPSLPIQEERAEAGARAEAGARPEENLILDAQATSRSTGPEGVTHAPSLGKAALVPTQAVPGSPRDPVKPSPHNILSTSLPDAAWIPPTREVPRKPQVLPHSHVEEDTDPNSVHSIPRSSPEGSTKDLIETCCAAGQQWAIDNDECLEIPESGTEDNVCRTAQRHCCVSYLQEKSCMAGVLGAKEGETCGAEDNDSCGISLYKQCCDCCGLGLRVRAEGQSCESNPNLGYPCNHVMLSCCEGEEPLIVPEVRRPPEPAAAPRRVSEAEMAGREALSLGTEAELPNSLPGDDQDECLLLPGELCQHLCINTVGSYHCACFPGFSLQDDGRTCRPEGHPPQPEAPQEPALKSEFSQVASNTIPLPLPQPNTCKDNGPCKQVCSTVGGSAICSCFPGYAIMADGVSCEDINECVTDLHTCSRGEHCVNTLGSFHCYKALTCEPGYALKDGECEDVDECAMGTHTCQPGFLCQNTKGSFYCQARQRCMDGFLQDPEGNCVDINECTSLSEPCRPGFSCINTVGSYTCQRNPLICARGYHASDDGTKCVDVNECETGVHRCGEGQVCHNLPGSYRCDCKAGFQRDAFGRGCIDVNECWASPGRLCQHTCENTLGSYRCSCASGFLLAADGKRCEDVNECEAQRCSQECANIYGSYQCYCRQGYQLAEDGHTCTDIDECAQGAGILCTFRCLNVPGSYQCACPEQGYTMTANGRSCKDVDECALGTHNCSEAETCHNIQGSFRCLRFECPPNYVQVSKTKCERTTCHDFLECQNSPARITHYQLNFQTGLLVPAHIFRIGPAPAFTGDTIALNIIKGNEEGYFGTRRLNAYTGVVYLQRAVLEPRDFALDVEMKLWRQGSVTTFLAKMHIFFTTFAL
UniProt P60981: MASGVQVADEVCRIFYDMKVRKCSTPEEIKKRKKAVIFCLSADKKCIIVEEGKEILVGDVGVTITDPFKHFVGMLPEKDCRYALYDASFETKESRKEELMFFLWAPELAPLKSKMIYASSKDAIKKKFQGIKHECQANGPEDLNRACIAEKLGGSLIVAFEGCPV
UniProt P62937, whole entry, looked up: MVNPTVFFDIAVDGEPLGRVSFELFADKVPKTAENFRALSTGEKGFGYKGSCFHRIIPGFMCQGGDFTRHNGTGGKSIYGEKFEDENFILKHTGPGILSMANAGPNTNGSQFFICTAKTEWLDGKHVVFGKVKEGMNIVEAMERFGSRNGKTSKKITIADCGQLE
UniProt P52565: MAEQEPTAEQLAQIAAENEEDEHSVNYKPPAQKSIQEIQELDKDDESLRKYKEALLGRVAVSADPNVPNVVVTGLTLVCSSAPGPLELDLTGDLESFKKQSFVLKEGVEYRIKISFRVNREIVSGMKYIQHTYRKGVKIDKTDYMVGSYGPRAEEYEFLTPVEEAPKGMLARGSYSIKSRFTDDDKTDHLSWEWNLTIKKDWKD
UniProt Q00403, whole entry: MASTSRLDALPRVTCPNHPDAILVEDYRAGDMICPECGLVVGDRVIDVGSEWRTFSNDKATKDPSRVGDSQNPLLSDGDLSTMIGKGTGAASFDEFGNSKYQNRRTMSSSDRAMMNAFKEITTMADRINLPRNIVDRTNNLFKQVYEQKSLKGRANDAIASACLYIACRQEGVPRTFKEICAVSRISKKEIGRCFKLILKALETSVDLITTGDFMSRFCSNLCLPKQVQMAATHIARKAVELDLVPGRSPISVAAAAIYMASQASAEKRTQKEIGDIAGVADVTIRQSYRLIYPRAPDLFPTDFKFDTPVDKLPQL
UniProt P56199, whole entry: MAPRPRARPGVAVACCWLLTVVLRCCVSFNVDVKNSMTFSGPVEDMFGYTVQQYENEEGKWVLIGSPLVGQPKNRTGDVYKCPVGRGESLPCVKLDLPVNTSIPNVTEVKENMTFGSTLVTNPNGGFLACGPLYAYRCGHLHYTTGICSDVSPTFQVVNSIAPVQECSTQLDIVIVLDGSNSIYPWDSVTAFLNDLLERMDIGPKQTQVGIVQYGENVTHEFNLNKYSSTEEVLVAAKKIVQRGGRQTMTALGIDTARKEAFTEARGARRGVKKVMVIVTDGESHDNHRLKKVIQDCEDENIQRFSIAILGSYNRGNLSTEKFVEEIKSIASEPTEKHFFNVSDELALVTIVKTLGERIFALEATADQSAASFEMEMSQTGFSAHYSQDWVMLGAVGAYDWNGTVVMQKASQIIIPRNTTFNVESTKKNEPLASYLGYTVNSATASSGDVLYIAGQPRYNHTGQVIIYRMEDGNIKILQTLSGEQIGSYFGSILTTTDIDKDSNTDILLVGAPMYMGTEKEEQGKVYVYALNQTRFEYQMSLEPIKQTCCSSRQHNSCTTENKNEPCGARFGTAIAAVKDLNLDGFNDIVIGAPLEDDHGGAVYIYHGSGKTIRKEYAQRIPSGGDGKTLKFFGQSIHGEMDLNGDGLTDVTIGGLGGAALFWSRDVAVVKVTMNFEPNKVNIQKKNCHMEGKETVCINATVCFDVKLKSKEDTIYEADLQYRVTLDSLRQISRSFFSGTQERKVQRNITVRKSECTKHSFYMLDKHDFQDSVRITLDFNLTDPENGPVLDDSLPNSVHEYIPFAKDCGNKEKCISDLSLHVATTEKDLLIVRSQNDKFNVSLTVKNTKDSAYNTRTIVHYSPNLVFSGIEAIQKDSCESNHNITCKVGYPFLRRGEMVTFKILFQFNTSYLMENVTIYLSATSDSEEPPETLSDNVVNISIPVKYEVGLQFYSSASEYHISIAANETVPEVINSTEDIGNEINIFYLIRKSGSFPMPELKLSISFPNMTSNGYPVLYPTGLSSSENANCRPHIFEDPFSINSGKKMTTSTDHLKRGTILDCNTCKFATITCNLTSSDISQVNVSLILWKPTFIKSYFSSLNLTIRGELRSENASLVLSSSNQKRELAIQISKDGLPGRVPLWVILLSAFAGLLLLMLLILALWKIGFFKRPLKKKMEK

Compound: Nc1nc2c(ncn2[C@@H]2O[C@H](COP(=O)(O)OP(=O)(O)OP(=O)(O)O)[C@@H](O)[C@H]2O)c(=O)[nH]1 [guanosine triphosphate]
Test: NP40-soluble protein abundance relative to vehicle (solubility fold change) (ratio); higher = more soluble protein in presence of GTP
Summary of the method: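 Jurkat crude lysate prepared with a Dounce homogeniser was treated at eight concentrations spanning 0.1 to 10 mM, 10 min at room temperature then 3 min at 37 °C. Solubilisation with 0.8% NP40 and benzonase and ultracentrifugation preceded TMT labelling of the supernatant for LC-MS/MS. Fold change against the detergent-processed vehicle was determined per replicate from vsn-normalised intensities, across three independent experiments.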

Target	NP40-soluble protein abundance (concentration: 0.1mM)	NP40-soluble protein abundance (concentration: 0.5mM)	NP40-soluble protein abundance (concentration: 1mM)	NP40-soluble protein abundance (concentration: 2mM)	NP40-soluble protein abundance (concentration: 4mM)	NP40-soluble protein abundance (concentration: 6mM)	NP40-soluble protein abundance (concentration: 8mM)	NP40-soluble protein abundance (concentration: 10mM)
UniProt P55201 and related entries	1.08 ± 0.055	1.13 ± 0.069	1.07 ± 0.16	1.04 ± 0.2	1.09 ± 0.17	1.17 ± 0.13	1.16 ± 0.14	1.21 ± 0.23
RBM5 (UniProt P52756)	0.978 ± 0.035	1.02 ± 0.073	1.1 ± 0.11	1.13 ± 0.1	1.22 ± 0.16	1.19 ± 0.18	1.23 ± 0.16	1.26 ± 0.14
FKBP1A (UniProt P62942)	0.912 ± 0.023	0.912 ± 0.023	0.923 ± 0.015	0.902 ± 0.028	0.91 ± 0.069	0.936 ± 0.062	0.926 ± 0.063	0.923 ± 0.065
VASP (UniProt P50552)	0.924 ± 0.095	0.918 ± 0.1	0.957 ± 0.12	0.907 ± 0.14	0.897 ± 0.12	0.896 ± 0.12	0.908 ± 0.082	0.932 ± 0.098
UniProt P78347 and related entries	1 ± 0.0066	1.01 ± 0.022	0.989 ± 0.013	0.997 ± 0.021	1.05 ± 0.021	1.03 ± 0.044	1.05 ± 0.058	1.02 ± 0.025
SEC13 (UniProt P55735)	0.969 ± 0.029	0.942 ± 0.024	0.934 ± 0.021	0.94 ± 0.021	0.942 ± 0.015	0.947 ± 0.037	0.941 ± 0.027	0.921 ± 0.024
UniProt P61247 and related entries	1 ± 0.064	0.99 ± 0.07	1.05 ± 0.17	0.975 ± 0.2	0.935 ± 0.27	0.909 ± 0.27	0.831 ± 0.25	0.905 ± 0.3
UniProt P78310-5|P78310 and related entries	0.974 ± 0.052	0.983 ± 0.14	1.02 ± 0.17	0.921 ± 0.12	0.93 ± 0.21	0.945 ± 0.17	0.96 ± 0.053	0.962 ± 0.17
SLC16A1 (UniProt P53985)	0.971 ± 0.051	1.04 ± 0.042	1.04 ± 0.066	1.04 ± 0.057	1.03 ± 0.064	1.05 ± 0.069	1.069 ± 0.0032	1.07 ± 0.078
UniProt P56559 and related entries	1.41 ± 0.089	1.56 ± 0.19	1.56 ± 0.21	1.45 ± 0.19	1.43 ± 0.22	1.51 ± 0.17	1.51 ± 0.27	1.45 ± 0.3
UniProt P63279 and related entries	0.912 ± 0.056	0.907 ± 0.022	0.972 ± 0.094	0.959 ± 0.062	0.972 ± 0.043	0.971 ± 0.077	0.983 ± 0.13	1.06 ± 0.16
SMS (UniProt P52788)	0.99 ± 0.02	0.996 ± 0.021	0.97 ± 0.019	0.944 ± 0.034	0.918 ± 0.02	0.928 ± 0.038	0.922 ± 0.022	0.917 ± 0.021
UniProt P98095 and related entries	1.02 ± 0.012	1.03 ± 0.034	1.03 ± 0.058	1.04 ± 0.036	1.02 ± 0.067	1.03 ± 0.075	1.02 ± 0.028	1.06 ± 0.023
UniProt P62316 and related entries	0.884 ± 0.064	0.91 ± 0.039	1.1 ± 0.12	1.17 ± 0.1	1.2 ± 0.15	1.31 ± 0.14	1.23 ± 0.089	1.45 ± 0.22
NCKAP1L (UniProt P55160)	1.06 ± 0.031	1.1 ± 0.076	0.996 ± 0.067	1.03 ± 0.1	0.995 ± 0.082	0.991 ± 0.083	0.957 ± 0.044	0.913 ± 0.076
MFAP1 (UniProt P55081)	0.906 ± 0.017	0.92 ± 0.043	1.02 ± 0.069	0.928 ± 0.1	0.919 ± 0.094	0.935 ± 0.12	0.999 ± 0.07	1.01 ± 0.092
DSTN (UniProt P60981)	0.964 ± 0.031	0.985 ± 0.029	0.919 ± 0.025	0.91 ± 0.046	0.894 ± 0.013	0.898 ± 0.041	0.885 ± 0.024	0.907 ± 0.045
CDK6 (UniProt Q00534)	0.972 ± 0.05	0.977 ± 0.017	0.941 ± 0.056	0.895 ± 0.032	0.864 ± 0.056	0.909 ± 0.06	0.89 ± 0.06	0.854 ± 0.039
UniProt P62937 and related entries	0.911 ± 0.089	0.933 ± 0.053	0.879 ± 0.11	0.889 ± 0.077	0.815 ± 0.12	0.882 ± 0.068	0.852 ± 0.071	0.797 ± 0.12
ARHGDIA (UniProt P52565)	0.958 ± 0.015	0.9706 ± 0.0064	0.919 ± 0.038	0.894 ± 0.046	0.858 ± 0.072	0.884 ± 0.062	0.868 ± 0.061	0.848 ± 0.078
UniProt P62263	1 ± 0.06	1 ± 0.011	1.07 ± 0.032	0.994 ± 0.11	0.935 ± 0.15	0.887 ± 0.15	0.875 ± 0.16	0.911 ± 0.2
GTF2B (UniProt Q00403)	1.03 ± 0.027	1.02 ± 0.018	0.9979 ± 0.0021	1 ± 0.02	1.02 ± 0.011	0.977 ± 0.028	0.994 ± 0.01	0.986 ± 0.026
UniProt P55039 and related entries	1.11 ± 0.039	1.05 ± 0.074	0.938 ± 0.025	0.944 ± 0.079	0.951 ± 0.059	0.905 ± 0.054	0.874 ± 0.054	0.849 ± 0.11
UniProt P50613	1.02 ± 0.035	1.03 ± 0.046	0.952 ± 0.018	0.976 ± 0.03	0.981 ± 0.029	0.976 ± 0.035	0.971 ± 0.04	0.95 ± 0.022
ITGA1 (UniProt P56199)	1.04 ± 0.15	0.944 ± 0.1	1.04 ± 0.2	1.07 ± 0.21	1.03 ± 0.19	1.02 ± 0.14	0.943 ± 0.19	1.01 ± 0.14
UniProt P50570-4	0.999 ± 0.043	1.01 ± 0.038	0.943 ± 0.028	0.951 ± 0.029	0.945 ± 0.024	0.919 ± 0.026	0.921 ± 0.031	0.912 ± 0.014
UniProt P62829	0.976 ± 0.081	0.973 ± 0.069	0.949 ± 0.082	0.941 ± 0.18	0.886 ± 0.16	0.844 ± 0.17	0.769 ± 0.13	0.839 ± 0.15

Random excerpt: 2 entries already listed
Target	NP40-soluble protein abundance (concentration: 0.1mM)	NP40-soluble protein abundance (concentration: 0.5mM)	NP40-soluble protein abundance (concentration: 1mM)	NP40-soluble protein abundance (concentration: 2mM)	NP40-soluble protein abundance (concentration: 4mM)	NP40-soluble protein abundance (concentration: 6mM)	NP40-soluble protein abundance (concentration: 8mM)	NP40-soluble protein abundance (concentration: 10mM)
DSTN (UniProt P60981)	0.964 ± 0.031	0.985 ± 0.029	0.919 ± 0.025	0.91 ± 0.046	0.894 ± 0.013	0.898 ± 0.041	0.885 ± 0.024	0.907 ± 0.045
UniProt P55201 and related entries	1.08 ± 0.055	1.13 ± 0.069	1.07 ± 0.16	1.04 ± 0.2	1.09 ± 0.17	1.17 ± 0.13	1.16 ± 0.14	1.21 ± 0.23
